Measured values as given in paper PMC11782658.

T1: lysine methyltransferase 9 alpha (KMT9α), endogenous (human (endogenous in PC-3M and DU145)) (UniProt Q9Y5N5)
T1 sequence: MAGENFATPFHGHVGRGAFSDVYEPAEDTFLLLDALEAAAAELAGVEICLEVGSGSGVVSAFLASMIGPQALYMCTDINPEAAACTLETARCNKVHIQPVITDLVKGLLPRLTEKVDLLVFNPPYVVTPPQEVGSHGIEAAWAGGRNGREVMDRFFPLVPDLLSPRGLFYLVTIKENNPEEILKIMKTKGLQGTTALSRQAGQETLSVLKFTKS


Target: T1, lysine methyltransferase 9 alpha (KMT9α), endogenous (human (endogenous in PC-3M and DU145))
Test: affinity purification with mass spectrometry; total cell lysate of PC-3M cells, immunoprecipitation with anti-KMT9α, IgG as negative control; on-bead trypsin digest, LC-MS/MS; partners at FDR < 0.05; intersected with human MitoCarta 3.0

Row | binding | Binder
1 | binds | pyruvate dehydrogenase complex component X (PDHX), endogenous (protein, UniProt O00330 54-501) GDPIKILMPSLSPTMEEGNIVKWLKKEGEAVSAGDALCEIETDKAVVTLDASDDGILAKIVVEEGSKNIRLGSLIGLIVEEGEDWKHVEIPKDVGPPPPVSKPSEPRPSPEPQISIPVKKEHIPGTLRFRLSPAARNILEKHSLDASQGTATGPRGIFTKEDALKLVQLKQTGKITESRPTPAPTATPTAPSPLQATAGPSYPRPVIPPVSTPGQPNAVGTFTEIPASNIRRVIAKRLTESKSTVPHAYATADCDLGAVLKVRQDLVKDDIKVSVNDFIIKAAAVTLKQMPDVNVSWDGEGPKQLPFIDISVAVATDKGLLTPIIKDAAAKGIQEIADSVKALSKKARDGKLLPEEYQGGSFSISNLGMFGIDEFTAVINPPQACILAVGRFRPVLKLTEDEEGNAKLQQRQLITVTMSSDSRVVDDELATRFLKSFKANLENPIRLA
2 | binds | pyruvate dehydrogenase E1 subunit PDHB, endogenous (enzyme, UniProt P11177 31-359) LQVTVRDAINQGMDEELERDEKVFLLGEEVAQYDGAYKVSRGLWKKYGDKRIIDTPISEMGFAGIAVGAAMAGLRPICEFMTFNFSMQAIDQVINSAAKTYYMSGGLQPVPIVFRGPNGASAGVAAQHSQCFAAWYGHCPGLKVVSPWNSEDAKGLIKSAIRDNNPVVVLENELMYGVPFEFPPEAQSKDFLIPIGKAKIERQGTHITVVSHSRPVGHCLEAAAVLSKEGVECEVINMRTIRPMDMETIEASVMKTNHLVTVEGGWPQFGVGAEICARIMEGPAFNFLDAPAVRVTGADVPMPYAKILEDNSIPQVKDIIFAIKKTLNI

These are yes or no findings as the source states them, for the method shown. Binding seen in cells or lysates may run through a third protein. These calls come from enrichment with a bait or labelling near it, and not all partners need be listed.
